Measured values reported in the supplement of paper PMC8858631.
Structures can show the parent of a compound that is named as a salt. The list shows a part of the results. Cut-off read from the data, not from the text of the source: active = 0.5 or less and inactive = the rest. Single values are uncertain, as repeats are few or missing.

test system: SK-MEL-28; assay: EEF2K protein level normalised to actin (western blot) after treatment (ratio (EEF2K/Actin)); higher = more EEF2K protein remaining (less EEF2K suppression); settings: 5 µM; 24 h

Row | Compound | EEF2K protein level normalised to actin
1 | CS(=O)(=O)CCNCc1ccc(-c2ccc3ncnc(Nc4ccc(OCc5cccc(F)c5)c(Cl)c4)c3c2)o1 | inactive: 0.63
2 | Cc1nc(=O)c2cc(CN(C)c3ccc(C(=O)N[C@@H](CCC(=O)O)C(=O)O)s3)ccc2[nH]1 [Raltitrexed] | inactive: 1.71
3 | O=C(c1ccc(OCCN2CCCCC2)cc1)c1c(-c2ccc(O)cc2)sc2cc(O)ccc12 [Raloxifene] | inactive: 0.65
4 | CNC[C@H](O)c1ccc(O)c(O)c1 [Epinephrine bitartrate] | inactive: 2.09
5 | COc1ccc2cc1Oc1ccc(cc1)C[C@H]1c3cc(c(OC)cc3CCN1C)Oc1c(O)c(OC)cc3c1[C@H](C2)N(C)CC3 [Fangchinoline] | inactive: 0.79
6 | C=CC(=O)Nc1cccc(Oc2nc(Nc3ccc(N4CCN(C)CC4)cc3)nc3ccsc23)c1 | inactive: 2.98
7 | c1cc(CN2CCCNCCNCCCNCC2)ccc1CN1CCCNCCNCCCNCC1 [Plerixafor 8HCl (AMD3100 8HCl)] | inactive: 0.64
8 | CS(=O)(=O)c1ccc(C(=O)Nc2ccc(Cl)c(-c3ccccn3)c2)c(Cl)c1 [Vismodegib (GDC-0449)] | inactive: 0.97
9 | CNC(=O)c1cc(Oc2ccc(NC(=O)Nc3ccc(Cl)c(C(F)(F)F)c3)c(F)c2)ccn1 [Regorafenib Monohydrate] | inactive: 1.17
10 | O=C(c1ccc(F)c(F)c1Nc1ccc(I)cc1F)N1CC(O)([C@@H]2CCCCN2)C1 [Cobimetinib (GDC-0973, RG7420)] | inactive: 0.97
11 | CC[C@]1(O)C[C@H]2CN(CCc3c([nH]c4ccccc34)[C@@](C(=O)OC)(c3cc4c(cc3OC)N(C=O)[C@H]3[C@@](O)(C(=O)OC)[C@H](OC(C)=O)[C@]5(CC)C=CCN6CC[C@]43[C@@H]65)C2)C1 [Vincristine sulfate] | inactive: 0.86
12 | CC[C@@]1(O)C(=O)OCc2c1cc1n(c2=O)Cc2cc3cc(O)ccc3nc2-1 [Hydroxy Camptothecine] | active: 0.42
13 | COc1cc2ncnc(Nc3ccc(F)c(Cl)c3)c2cc1OCCCN1CCOCC1 [Gefitinib (ZD1839)] | inactive: 0.74
14 | O=C(Nc1cnn2ccc(N3CCC[C@@H]3c3cc(F)ccc3F)nc12)N1CC[C@H](O)C1 [Larotrectinib (LOXO-101) sulfate] | inactive: 0.92
15 | CN1C2=CC(=O)/C(=N\NC(N)=O)C=C2CC1S(=O)(=O)O (stereo unspecified) [Carbazochrome sodium sulfonate (AC-17)] | active: 0.4
16 | CN(Cc1cnc2nc(N)nc(N)c2n1)c1ccc(C(=O)N[C@@H](CCC(=O)O)C(=O)O)cc1 [Methotrexate] | inactive: 0.91
17 | C[C@H](Oc1cc(-c2cnn(C3CCNCC3)c2)cnc1N)c1c(Cl)ccc(F)c1Cl [(S)-crizotinib] | inactive: 2.89
18 | CO[C@H]1O[C@@H]2O[C@@]3(C)CC[C@H]4[C@H](C)CC[C@@H]([C@H]1C)[C@@]24OO3 [Artemether] | inactive: 1.31

Retrieved one by one from above:
Row | Compound | EEF2K protein level normalised to actin
5 | COc1ccc2cc1Oc1ccc(cc1)C[C@H]1c3cc(c(OC)cc3CCN1C)Oc1c(O)c(OC)cc3c1[C@H](C2)N(C)CC3 [Fangchinoline] | inactive: 0.79
15 | CN1C2=CC(=O)/C(=N\NC(N)=O)C=C2CC1S(=O)(=O)O (stereo unspecified) [Carbazochrome sodium sulfonate (AC-17)] | active: 0.4
8 | CS(=O)(=O)c1ccc(C(=O)Nc2ccc(Cl)c(-c3ccccn3)c2)c(Cl)c1 [Vismodegib (GDC-0449)] | inactive: 0.97

(more compounds)

Row | Compound | EEF2K protein level normalised to actin
19 | CC(C)C[C@H](NC(=O)[C@H](Cc1ccccc1)NC(=O)c1cnccn1)B(O)O [Bortezomib (PS-341)] | active: 0.07
20 | CNC(=O)c1cc(Oc2ccc(NC(=O)Nc3ccc(Cl)c(C(F)(F)F)c3)cc2)ccn1 [Sorafenib] | inactive: 2.28
21 | Nc1nc(=O)c2c([nH]1)NCC(CNc1ccc(C(=O)N[C@@H](CCC(=O)O)C(=O)O)cc1)N2C=O (stereo partly specified) [Leucovorin Calcium Pentahydrate] | inactive: 0.91
22 | CC(O)c1cc(C(=O)N[C@@H](C)Cn2ccc(-c3ccc(C#N)c(Cl)c3)n2)n[nH]1 (stereo partly specified) [Darolutamide (ODM-201)] | inactive: 2.2
23 | CCC1(O)C(=O)OCc2c1cc1n(c2=O)Cc2c-1nc1ccccc1c2CCNC(C)C (stereo unspecified) [Belotecan (CKD-602) hydrochloride] | inactive: 1.88
24 | O=C1Nc2ccccc2/C1=C1/Nc2ccccc2C1=O [Indirubin] | inactive: 3.13
25 | CC(=O)O[C@@]12CO[C@@H]1C[C@H](O)[C@@]1(C)C(=O)[C@H](O)C3=C(C)[C@@H](OC(=O)[C@H](O)[C@@H](NC(=O)OC(C)(C)C)c4ccccc4)C[C@@](O)([C@@H](OC(=O)c4ccccc4)[C@H]21)C3(C)C [Docetaxel Trihydrate] | active: 0.16
26 | Nc1nc(Cl)nc2c1ncn2[C@H]1C[C@H](O)[C@@H](CO)O1 [Cladribine] | inactive: 3.95
27 | COc1nc(N)nc2c1ncn2[C@@H]1O[C@H](CO)[C@@H](O)[C@@H]1O [Nelarabine] | inactive: 4.32
28 | Cn1cc(C2=C(c3cccc(N)c3)C(=O)NC2=O)c2ccccc21 | inactive: 3.19
29 | CN1C(=O)/C(=C2/C(=O)Nc3ccccc32)c2ccccc21 [Meisoindigo] | inactive: 0.73
30 | CN1CCN(c2ccc(C(=O)Nc3n[nH]c4ccc(Cc5cc(F)cc(F)c5)cc34)c(NC3CCOCC3)c2)CC1 [Entrectinib (RXDX-101)] | inactive: 3.16
31 | COc1cc(C2Oc3cc([C@H]4Oc5cc(O)cc(O)c5C(=O)[C@@H]4O)ccc3OC2CO)ccc1O (stereo partly specified) [Silibinin] | inactive: 1.49
32 | Nc1cc(F)ccc1NC(=O)c1ccc(CNC(=O)/C=C/c2cccnc2)cc1 [Tucidinostat (Chidamide)] | inactive: 0.76
33 | O=c1cc[nH]c(=O)[nH]1 [Uracil] | inactive: 1.18
34 | C[C@H](Nc1ncnc2nc[nH]c12)c1cc2cccc(Cl)c2c(=O)n1-c1ccccc1 [Duvelisib (IPI-145, INK1197)] | inactive: 1.57
35 | C[C@@H](Oc1cc(-c2cnn(C3CCNCC3)c2)cnc1N)c1c(Cl)ccc(F)c1Cl | active: 0.17
36 | Nc1nc(Cl)nc2c1ncn2[C@@H]1O[C@H](CO)[C@@H](O)[C@@H]1F [Clofarabine] | active: 0.31
